Measured values reported in article doi:10.1101/2022.02.08.479400.
Results are given in words; binding and its absence hold for the method and conditions named. In cells and extracts the contact can be indirect. Some results given as binding are weak or reduced against the parent protein; the word gives no strength. Where a sequence is shown, tags or fusion partners need not be part of it.

Target: T1, nEYFP-fused PDR6 (Arabidopsis thaliana) (UniProt Q7PC87)
T1 sequence: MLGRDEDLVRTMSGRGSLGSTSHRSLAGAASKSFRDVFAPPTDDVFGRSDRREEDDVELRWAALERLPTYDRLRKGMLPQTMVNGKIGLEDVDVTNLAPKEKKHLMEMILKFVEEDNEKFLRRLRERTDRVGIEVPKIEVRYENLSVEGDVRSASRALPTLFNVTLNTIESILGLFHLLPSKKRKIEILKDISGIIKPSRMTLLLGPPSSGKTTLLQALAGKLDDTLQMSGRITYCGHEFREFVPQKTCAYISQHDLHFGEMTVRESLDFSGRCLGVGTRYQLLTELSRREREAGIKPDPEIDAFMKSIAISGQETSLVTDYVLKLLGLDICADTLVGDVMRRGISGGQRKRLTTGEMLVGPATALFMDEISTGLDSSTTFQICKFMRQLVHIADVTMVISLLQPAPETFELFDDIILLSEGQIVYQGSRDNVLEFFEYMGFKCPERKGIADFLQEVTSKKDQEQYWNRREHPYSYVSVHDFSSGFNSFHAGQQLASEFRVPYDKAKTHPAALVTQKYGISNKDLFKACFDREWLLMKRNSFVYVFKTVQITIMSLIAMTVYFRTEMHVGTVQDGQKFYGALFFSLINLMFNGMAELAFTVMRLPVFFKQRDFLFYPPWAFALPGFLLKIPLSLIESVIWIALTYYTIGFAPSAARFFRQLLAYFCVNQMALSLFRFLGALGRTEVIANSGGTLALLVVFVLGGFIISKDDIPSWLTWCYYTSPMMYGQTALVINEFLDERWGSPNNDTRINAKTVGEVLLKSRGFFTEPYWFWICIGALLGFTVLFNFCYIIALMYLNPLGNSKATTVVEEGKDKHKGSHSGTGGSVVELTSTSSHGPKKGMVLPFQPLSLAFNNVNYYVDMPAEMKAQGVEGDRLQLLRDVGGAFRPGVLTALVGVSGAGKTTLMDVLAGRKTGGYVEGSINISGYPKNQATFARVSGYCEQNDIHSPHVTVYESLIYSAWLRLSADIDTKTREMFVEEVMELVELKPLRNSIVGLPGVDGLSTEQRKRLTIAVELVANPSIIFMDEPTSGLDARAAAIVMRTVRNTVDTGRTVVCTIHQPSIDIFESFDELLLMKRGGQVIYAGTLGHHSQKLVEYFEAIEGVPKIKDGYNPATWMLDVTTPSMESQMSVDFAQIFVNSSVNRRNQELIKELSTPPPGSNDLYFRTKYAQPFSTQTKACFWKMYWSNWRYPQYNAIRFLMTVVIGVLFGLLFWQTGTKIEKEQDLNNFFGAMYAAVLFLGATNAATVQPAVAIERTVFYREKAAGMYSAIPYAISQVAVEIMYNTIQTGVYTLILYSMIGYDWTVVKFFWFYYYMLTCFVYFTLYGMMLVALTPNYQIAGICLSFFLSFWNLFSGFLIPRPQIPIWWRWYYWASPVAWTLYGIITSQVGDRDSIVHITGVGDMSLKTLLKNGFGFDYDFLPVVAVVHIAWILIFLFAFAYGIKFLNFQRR
Assay: split reporter

B1: cEYFP-fused OXI1 (enzyme, UniProt Q9LSF1 1-421)
chain: MLEGDEKQSRALDFNRLEVLSLLGRGAKGVVFLVRDDDAKLLALKVILKEAIEKKKKGRESEDDEYKRVSFEQGVLSRFDHPLFPSLHGVLATDKVIGYAIDYCPGQNLNSLRKMQSESMFSDEIIRFYAAELVLALDYLHNQGIVYRDLKPDNVMIQENGHLMLIDFDLSTNLAPRTPQPSPSLSKPSPTMKRKKRLFRFTSFCNSGISPQESISVHSSSTLAVSDSSGEKSNSFVGTEEYVAPEVISGDGHDFAVDWWSLGVVLYEMLYGATPFRGSNRKETFYRILSKPPNLTGETTSLRDLIRRLLEKDPSRRINVEEIKGHDFFRGVDWEKVILVSRPPYIPAPDDGGDKGTDVNTKMDVENIVQEIFAARQEREKQSGDNNKNANMKIKDNTSGEWVKGLNNNHDLESDNNFLVF
binding: binds
